No constants are given. Whether binding was seen depends on the method and setting. Some binding calls cover weakened binding; strength is not graded here.
Experiments:
[1] = biological target: mutant human C5 (R885H)-his protein (Acro biosystems, Cat#CO5-H52Hx) (human) (UniProt P01031); assay: indirect ELISA, human C5 (R885H)-his coated
[2] = biological target: cynomolgus monkey C5-his protein (Acro biosystems, Cat#CO5-C52Hx) (cynomolgus monkey); assay: indirect ELISA, cynomolgus C5-his coated
[3] = biological target: recombinant human C5-his protein (Sino Biological Inc., Cat#13416-H18H) (human) (UniProt P01031); assay: capture ELISA, antibody captured by anti-human IgG Fc, biotin human C5-his
[4] = biological target: cynomolgus monkey C5-his protein (Acro biosystems, Cat#CO5-C52Hx) (cynomolgus monkey); assay: SPR (Biacore T200)
[5] = biological target: recombinant human C5-his protein (Sino Biological Inc., Cat#13416-H18H) (human) (UniProt P01031); assay: SPR (Biacore T200)
[6] = biological target: mutant human C5 (R885H)-his protein (Acro biosystems, Cat#CO5-H52Hx) (human) (UniProt P01031); assay: SPR (Biacore T200)

By UniProt entry, the sequences of proteins in these tests, tags left out. Where a name states a change or a piece, a line headed by the entry shows the natural chain unless it says otherwise. Chains listed by the source or under a name are the forms on record and can include a tag or linker. Residues count along the entry.
recombinant human C5-his protein (Sino Biological Inc., Cat#13416-H18H) (P01031, residues 19-1676): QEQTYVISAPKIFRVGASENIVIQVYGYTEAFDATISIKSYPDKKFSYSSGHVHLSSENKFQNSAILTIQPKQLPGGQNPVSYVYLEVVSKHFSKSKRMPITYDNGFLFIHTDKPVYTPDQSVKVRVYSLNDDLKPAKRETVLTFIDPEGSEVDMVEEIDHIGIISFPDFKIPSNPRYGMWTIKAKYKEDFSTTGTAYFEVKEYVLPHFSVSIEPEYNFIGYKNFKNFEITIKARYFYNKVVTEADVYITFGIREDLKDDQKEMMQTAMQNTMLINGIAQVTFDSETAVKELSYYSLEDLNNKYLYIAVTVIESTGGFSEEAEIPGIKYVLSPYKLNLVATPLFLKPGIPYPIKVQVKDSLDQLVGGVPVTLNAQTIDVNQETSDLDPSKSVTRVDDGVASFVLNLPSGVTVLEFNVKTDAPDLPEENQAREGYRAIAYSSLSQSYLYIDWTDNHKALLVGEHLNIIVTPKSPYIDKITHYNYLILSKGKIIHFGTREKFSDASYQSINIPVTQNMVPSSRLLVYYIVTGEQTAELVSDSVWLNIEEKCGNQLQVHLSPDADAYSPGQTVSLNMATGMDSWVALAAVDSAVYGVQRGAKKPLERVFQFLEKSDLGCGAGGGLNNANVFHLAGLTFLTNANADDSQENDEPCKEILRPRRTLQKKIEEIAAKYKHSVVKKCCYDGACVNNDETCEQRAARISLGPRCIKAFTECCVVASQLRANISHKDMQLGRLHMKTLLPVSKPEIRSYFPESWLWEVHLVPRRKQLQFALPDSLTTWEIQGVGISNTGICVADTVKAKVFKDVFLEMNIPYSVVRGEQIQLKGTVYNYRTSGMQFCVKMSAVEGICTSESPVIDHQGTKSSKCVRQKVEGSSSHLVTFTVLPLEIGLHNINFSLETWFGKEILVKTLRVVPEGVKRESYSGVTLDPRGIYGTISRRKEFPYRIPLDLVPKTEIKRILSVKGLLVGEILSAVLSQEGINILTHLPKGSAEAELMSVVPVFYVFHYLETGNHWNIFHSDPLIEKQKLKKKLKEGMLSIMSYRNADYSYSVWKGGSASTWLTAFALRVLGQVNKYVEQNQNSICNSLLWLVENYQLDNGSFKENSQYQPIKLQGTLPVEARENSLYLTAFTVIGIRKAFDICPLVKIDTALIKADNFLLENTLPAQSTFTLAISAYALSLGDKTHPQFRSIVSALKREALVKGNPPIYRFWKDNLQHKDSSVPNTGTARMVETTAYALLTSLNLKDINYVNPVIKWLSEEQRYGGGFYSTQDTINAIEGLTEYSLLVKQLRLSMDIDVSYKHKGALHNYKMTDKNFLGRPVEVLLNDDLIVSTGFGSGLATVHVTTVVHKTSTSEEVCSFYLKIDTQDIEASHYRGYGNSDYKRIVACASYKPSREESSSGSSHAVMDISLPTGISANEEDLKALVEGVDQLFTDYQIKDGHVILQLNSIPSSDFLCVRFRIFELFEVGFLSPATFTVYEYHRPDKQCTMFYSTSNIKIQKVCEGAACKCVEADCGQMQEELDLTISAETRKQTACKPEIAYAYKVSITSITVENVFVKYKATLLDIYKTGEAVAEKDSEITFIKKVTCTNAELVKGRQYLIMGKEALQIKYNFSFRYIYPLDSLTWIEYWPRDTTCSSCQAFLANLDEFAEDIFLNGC
mutant human C5 (R885H)-his protein (Acro biosystems, Cat#CO5-H52Hx) (P01031, form named): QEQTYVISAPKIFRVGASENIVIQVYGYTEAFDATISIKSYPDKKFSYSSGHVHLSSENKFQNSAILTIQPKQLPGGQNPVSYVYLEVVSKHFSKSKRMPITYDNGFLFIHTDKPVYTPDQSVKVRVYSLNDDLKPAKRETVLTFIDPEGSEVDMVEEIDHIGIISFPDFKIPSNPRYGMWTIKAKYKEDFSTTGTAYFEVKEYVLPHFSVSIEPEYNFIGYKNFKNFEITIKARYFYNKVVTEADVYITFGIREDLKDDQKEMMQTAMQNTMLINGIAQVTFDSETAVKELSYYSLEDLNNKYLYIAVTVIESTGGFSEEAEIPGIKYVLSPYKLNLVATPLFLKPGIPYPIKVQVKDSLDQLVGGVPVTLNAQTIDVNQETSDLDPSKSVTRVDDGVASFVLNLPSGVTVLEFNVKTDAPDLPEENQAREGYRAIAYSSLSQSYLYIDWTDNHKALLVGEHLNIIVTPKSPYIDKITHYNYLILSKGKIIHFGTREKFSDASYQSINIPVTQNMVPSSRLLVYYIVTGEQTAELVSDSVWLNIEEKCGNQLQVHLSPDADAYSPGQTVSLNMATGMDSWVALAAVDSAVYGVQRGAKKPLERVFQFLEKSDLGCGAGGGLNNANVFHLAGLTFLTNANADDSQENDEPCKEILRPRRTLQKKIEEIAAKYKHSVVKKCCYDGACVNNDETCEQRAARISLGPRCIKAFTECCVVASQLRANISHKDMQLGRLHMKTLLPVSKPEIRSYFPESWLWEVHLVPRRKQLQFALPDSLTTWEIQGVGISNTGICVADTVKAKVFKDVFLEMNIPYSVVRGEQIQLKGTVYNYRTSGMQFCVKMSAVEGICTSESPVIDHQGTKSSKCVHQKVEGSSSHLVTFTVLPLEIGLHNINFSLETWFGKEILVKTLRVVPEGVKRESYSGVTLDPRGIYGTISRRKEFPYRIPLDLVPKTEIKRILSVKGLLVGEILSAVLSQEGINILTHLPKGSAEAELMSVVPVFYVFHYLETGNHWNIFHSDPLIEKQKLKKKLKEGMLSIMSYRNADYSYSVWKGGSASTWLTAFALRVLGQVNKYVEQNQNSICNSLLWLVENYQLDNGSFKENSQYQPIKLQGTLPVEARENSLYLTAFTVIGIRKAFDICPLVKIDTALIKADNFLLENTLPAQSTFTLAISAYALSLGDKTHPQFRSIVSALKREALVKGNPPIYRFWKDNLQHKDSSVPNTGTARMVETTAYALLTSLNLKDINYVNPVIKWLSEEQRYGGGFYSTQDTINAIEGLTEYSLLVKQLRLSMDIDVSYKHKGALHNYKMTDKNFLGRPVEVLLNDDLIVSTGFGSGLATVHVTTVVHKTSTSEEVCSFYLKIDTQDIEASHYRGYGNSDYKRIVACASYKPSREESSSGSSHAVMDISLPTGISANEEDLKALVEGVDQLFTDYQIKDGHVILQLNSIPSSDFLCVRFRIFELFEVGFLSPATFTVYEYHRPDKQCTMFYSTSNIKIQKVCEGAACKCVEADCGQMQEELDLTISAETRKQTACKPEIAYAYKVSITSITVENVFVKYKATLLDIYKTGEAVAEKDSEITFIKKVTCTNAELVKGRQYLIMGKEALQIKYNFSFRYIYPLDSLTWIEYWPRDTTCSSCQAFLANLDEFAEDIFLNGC

Measured: binding

B1: A2E12G12H7 (antibody, V domains shown)
VH: QVQLVQSGAEVKKPGASVKVSCKASGYTFTGYYIHWVRQAPGQGLEWMGWINPNSGSTNSAQKFQDWVTLTRDTSISTAYMELSRLKSDDTAVYYCARRADYYGSGNFYYFDYWGQGTLVTVSS
VL: DIQMTQSPSSVSASVGDRVTISCRASQSISRWLAWYQQKPGKAPKLLIYAATSLQSGVPSRFSGSGFVRDFTLTISSLQPEDFATYYCQQANTFPLIFGGGTKVEIK
binds: all assays above
